Paper PMC2805716, “Critical Structural and Functional Roles for the N-Terminal Insertion Sequence in Surfactant Protein B Analogs” (PLoS ONE, 2010)
Results are given in words; binding and its absence hold for the method and conditions named.

Target: Mini-B (human)
Test: SDS-PAGE; 4 µg peptide in 8 µl buffer (50 mM MOPS, 50 mM Tris, pH 7.7, 0.1% SDS, 1 mM EDTA), neither heated nor reduced; 16% acrylamide gel; Coomassie blue and silver staining; molecular weight markers 2.5-16.9 kDa; both purified

B1: Mini-B (peptide)
chain: CWLCRALIKRIQAMIPKGGRMLPQLVCRLVLRCS
notes: surfactant protein B (SP-B), human, residues 8-25 (N-terminal helix region); numbers count on: the mature protein (79 residues); surfactant protein B (SP-B), human, residues 63-78 (C-terminal helix region); Oxidised form with intramolecular disulfides Cys-8 to Cys-40 and Cys-11 to Cys-34 (S-MB numbering); also called MB; source: synthetic peptide (Fmoc solid phase, HPLC-purified, air-oxidised)
  binding: no binding (tested: 4 µg peptide in 8 µl buffer)
